Measurements reported in the supplement of paper PMC3334620.
Whole data set: some 33,000 sequences, median “E-score (-0.5 to 0.5)” near -0.015, cut for the highest 2% near 0.3. This is one part of the list.

Target: T1, Abf1 (UniProt P14164)
T1 sequence: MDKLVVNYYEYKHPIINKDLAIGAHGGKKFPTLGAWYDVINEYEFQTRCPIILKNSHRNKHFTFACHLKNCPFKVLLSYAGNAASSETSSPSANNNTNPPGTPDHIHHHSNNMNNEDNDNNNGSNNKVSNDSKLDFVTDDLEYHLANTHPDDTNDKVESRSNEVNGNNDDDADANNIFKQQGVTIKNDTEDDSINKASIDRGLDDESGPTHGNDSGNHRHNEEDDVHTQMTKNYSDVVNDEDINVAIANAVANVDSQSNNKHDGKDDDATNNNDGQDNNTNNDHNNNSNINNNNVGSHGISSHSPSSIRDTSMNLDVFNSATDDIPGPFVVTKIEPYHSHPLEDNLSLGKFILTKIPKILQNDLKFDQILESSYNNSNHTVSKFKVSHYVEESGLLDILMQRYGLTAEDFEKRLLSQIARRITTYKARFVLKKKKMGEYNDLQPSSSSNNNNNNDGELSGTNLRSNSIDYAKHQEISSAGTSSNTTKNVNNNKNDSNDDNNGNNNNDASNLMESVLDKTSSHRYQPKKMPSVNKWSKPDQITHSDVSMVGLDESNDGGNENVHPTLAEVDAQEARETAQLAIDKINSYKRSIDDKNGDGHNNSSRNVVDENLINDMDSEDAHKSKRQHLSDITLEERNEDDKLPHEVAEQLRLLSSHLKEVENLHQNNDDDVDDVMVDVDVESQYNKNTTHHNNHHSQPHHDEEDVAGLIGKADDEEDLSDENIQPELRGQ
Experiment: PBM E-score (8-mer binding enrichment) (E-score (-0.5 to 0.5)); higher = stronger / more preferred TF binding
Settings: protein concentration: 200 nM; construct: GST-full length
In short: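 The E-score, a modified Wilcoxon-Mann-Whitney statistic, was computed by the Universal PBM Analysis Suite for every ungapped eight-base word pooled with its reverse complement. Scans behind it were normalised with masliner after bound GST-tagged yeast transcription factors were detected with fluorescent anti-GST. The proteins, at about 100-200 nM, had been applied to universal all-10-mer Agilent arrays made double-stranded by primer extension.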

| Sequence | PBM E-score |
| --- | --- |
| CGAGAACC | -0.0363 |
| CCCCTAGG | -0.245 |
| GAGTGCAA | -0.128 |
| AAGACGGC | 0.118 |
| ACCGTTCT | 0.0916 |
| CTTAGTTC | -0.0152 |
| GAATCTAC | 0.0752 |
| ATGTTATG | 0.109 |
| CGCAATGC | -0.178 |
| ACCACAGT | -0.131 |
| TCAAAGGA | -0.0811 |
| CGCAGTGA | 0.151 |
| CAGGACCC | -0.171 |
| GTAGATAC | 0.0486 |
| CACCACTA | -0.0391 |
| CCACGAAC | 0.338 |
| ACATGACG | 0.161 |
| CCAGGACG | -0.125 |
| GCAGGTCC | -0.0766 |
| ATTGTAAC | 0.0577 |
| ATATGTTA | -0.0727 |
| TACCCTGA | -0.139 |
| CTGACGAC | 0.228 |
| CTTGCAAG | -0.0984 |
| ATAGCGTA | 0.0387 |
| AATGAGGA | -0.0728 |

| Sequence | PBM E-score |
| --- | --- |
| ACAGCATC | -0.0789 |
| CTGGACAG | -0.169 |
| CCAATAGC | -0.0947 |
| CACACCTC | -0.13 |
| ATTAATTG | 0.158 |
| ACGTTCCC | 0.0384 |
| ATTTTAGG | 0.164 |
| AAACGATA | 0.376 |
| AGAATCTA | -0.00611 |
| AACTTGTG | 0.127 |
| CGTCCAAA | 0.207 |
| ATGGGAAG | -0.191 |
| ACTTGTCA | 0.264 |
| CACCGACA | 0.0857 |
| AGAGTGAG | 0.0964 |
| CGGAGGAC | -0.135 |
| AACGGGTA | 0.0715 |
| AAAAGTAG | 0.12 |
| AGCAAGAC | 0.0323 |
| AAACACAA | -0.0197 |
| GTGCCCGA | 0.116 |
| AAGTACTG | -0.0963 |
| ACACGCCG | -0.0835 |
| ACATCCCG | 0.0611 |
| AGACGCGA | -0.0282 |
| CTTGCGTA | 0.114 |

| Sequence | PBM E-score |
| --- | --- |
| GGTCATGA | 0.124 |
| CGAAACTA | 0.273 |
| CGGTCCTC | -0.114 |
| CAGGTGAC | 0.22 |
| ATCTAGAG | 0.0253 |
| AGGCCCCG | -0.122 |
| ATCTATGA | -0.0019 |
| CTCATAAA | 0.00302 |
| ATACCTGA | -0.11 |
| CCTAGACA | -0.177 |
| CGATTTGC | -0.156 |
| CCTCGCGC | -0.0669 |
| AGTGCAAT | -0.0902 |
| ACCTCATA | 0.195 |
| AGAGCTCA | -0.163 |
| CTCGTGTA | 0.157 |
| GGAGGTAA | 0.0568 |
| GCGATCGC | 0.148 |
| ATGTGTAG | -0.158 |
| ACAATGAA | 0.0646 |
| GGCTTGAC | -0.237 |
| CCCCCCAG | -0.448 |
| AGCCGGTA | -0.013 |
| CGCTGTGA | 0.0398 |
| ATTGGTCG | 0.07 |
| GATTACAA | 0.19 |

| Sequence | PBM E-score |
| --- | --- |
| GGGACAGA | -0.0867 |
| CGTACTCA | 0.304 |
| CAAGACAC | -0.0928 |
| CCGGCGCA | -0.116 |
| TCAAGCGA | 0.0108 |
| CGCGACGC | 0.127 |
| ATATCGAG | 0.11 |
| ACGAAGCA | 0.214 |
| ATTATCGA | -0.0815 |
| GGGGTCGA | -0.208 |
| GACTGAGC | -0.146 |
| CATCATAC | 0.263 |
| GCAAATAC | -0.0641 |
| CCCTCCTA | -0.168 |
| AATGCTCT | 0.0865 |
| AATGTTTG | -0.102 |
| GCCTAGTA | -0.0486 |
| CATTATAA | 0.152 |
| AGAGTTAC | -0.0486 |
| GATGGAAC | -0.183 |
| ACAGTTGG | -0.0476 |
| AAGCATAG | -0.174 |
| CCCATACG | 0.163 |
| TAGACAGA | -0.126 |
| ACCGATTG | 0.0553 |
| GTAACGAA | 0.123 |

Part of the list above in a different format.
Sequence	PBM E-score
TCAAAGGA	-0.0811
ATTTTAGG	0.164
ATGGGAAG	-0.191
CTCGTGTA	0.157
AATGTTTG	-0.102

Next part

| Sequence | PBM E-score |
| --- | --- |
| AACATGCT | 0.0812 |
| AGATTCAA | 0.129 |
| CAATATTG | 0.0635 |
| AATTGTCA | 0.335 |
| CGGGGCCC | -0.0715 |
| AAAAGAGT | -0.0776 |
| AGAGAGGC | -0.223 |
| CAGCCAGA | -0.176 |
| GAAAGCTC | -0.278 |
| CGTATGCA | 0.0822 |
| CACCACGC | -0.248 |
| CATAAGCC | -0.108 |
| CAACGAGG | 0.0306 |
| CTGGCATA | 0.0307 |
| TCTAGTCA | 0.0902 |
| GTACATGA | 0.118 |
| GAGGGTCA | -0.164 |
| TGCTCAAA | 0.0834 |
| CAACGAGA | 0.158 |
| CCGCGGTA | 0.0135 |
| GCTCTTAC | 0.0312 |
| AAGCGTGG | -0.0346 |
| AAGAAATT | 0.175 |
| GACCTACA | 0.0466 |
| CCAATACG | 0.0289 |
